## Assay results

The results are deposited in PubChem (AID1159506; NCATS, 2015).

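Genome-wide siRNA knockdown in TC32 Ewing sarcoma cells, comparing luciferase light from an NR0B1-promoter reporter with a CMV-promoter reporter 48 hours after transfection. Each siRNA was applied at 20 nM. A z-score of the log NR0B1-over-CMV signal, less the median of siRNAs with the same seed; more negative means a stronger specific loss of the NR0B1 reporter.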

The strongest results of the screen are mostly left out here. Sequences are the guide (antisense) strand, without overhang.

{"sequence": "UUCACUUCCAUCUUGGCUG", "target gene": "SCGB1D1", "seed-corrected z-score": "1.105"}
{"sequence": "UACAAUCUCAUUCAGAGGC", "target gene": "ATP13A2", "seed-corrected z-score": "0.3206"}
{"sequence": "UCAGAAAUGUUGCAGGUCC", "target gene": "PGLYRP4", "seed-corrected z-score": "0.3231"}
{"sequence": "UUAUCAUGCCUGCAAAUCC", "target gene": "BCL9", "seed-corrected z-score": "0.7032"}
{"sequence": "UAACUGCGUAGACUGUAUC", "target gene": "ATPAF1", "seed-corrected z-score": "-1.823"}
{"sequence": "UUUGCUUAUUGUCCGCACG", "target gene": "MYO1C", "seed-corrected z-score": "-0.7759"}
{"sequence": "AUUAGUACUACAAAUGCCG", "target gene": "GPR155", "seed-corrected z-score": "-0.8491"}
{"sequence": "UCAGUGCUGAGCUACCUUG", "target gene": "PEX6", "seed-corrected z-score": "-0.3012"}
{"sequence": "UAGGAUCACAUCCCGUAGC", "target gene": "HECTD4", "seed-corrected z-score": "0.2159"}
{"sequence": "ACAGGUACCAGAAGAUCCC", "target gene": "SLC17A7", "seed-corrected z-score": "0.3098"}
{"sequence": "AAAAGUCUUCGAUGGUCGG", "target gene": "RAP2B", "seed-corrected z-score": "0.1548"}
{"sequence": "UUAUGCACCAGCUCGCUCC", "target gene": "SH3BP5", "seed-corrected z-score": "-0.2359"}
{"sequence": "UGGAGUUUCCUCGUGUUCC", "target gene": "C15orf41", "seed-corrected z-score": "-0.0576"}
{"sequence": "AAGAUUACUAUUUCGGAGC", "target gene": "ARHGEF28", "seed-corrected z-score": "-0.486"}
{"sequence": "UAUUCAGAAAAGUUCAUGC", "target gene": "SPATA8", "seed-corrected z-score": "0.9647"}
{"sequence": "UCUGUAUACAUUCAAAAGA", "target gene": "ZNF468", "seed-corrected z-score": "-0.2635"}
{"sequence": "UCACCUUUCAUGACAGUAG", "target gene": "ZSCAN5CP", "seed-corrected z-score": "-0.06439"}
{"sequence": "UCUUCUCCCAGACAAAGCG", "target gene": "SEMA4D", "seed-corrected z-score": "1.752"}
{"sequence": "UUUGGGUCCAGAUAUCAUG", "target gene": "SSX3", "seed-corrected z-score": "-0.9141"}
{"sequence": "UUCUUUACAGCAUCUUUGC", "target gene": "MAGEB6", "seed-corrected z-score": "1.043"}
{"sequence": "UUGCUAUCGAUCUCACUGC", "target gene": "CTNND2", "seed-corrected z-score": "-0.544"}
{"sequence": "AGACUGAACACAUCCGCUG", "target gene": "PKMYT1", "seed-corrected z-score": "-0.246"}
{"sequence": "UAAUGAAAAGUUCUAGUUG", "target gene": "LOC647859", "seed-corrected z-score": "0.2808"}
{"sequence": "UUGCUGUAAUUCAGGGUAG", "target gene": "LOC729609", "seed-corrected z-score": "0.3023"}
{"sequence": "UUAGGAGUCCCAUCUAUGG", "target gene": "PAPOLG", "seed-corrected z-score": "0.2409"}
{"sequence": "UUAUUCUAAUCUGUCGUUC", "target gene": "GDAP2", "seed-corrected z-score": "-0.4904"}
{"sequence": "UAGAUGAUGACGAUGCUUG", "target gene": "PLAG1", "seed-corrected z-score": "1.225"}
{"sequence": "UAAAGGGUGACGUAAAAGG", "target gene": "LIPG", "seed-corrected z-score": "-0.05636"}
{"sequence": "UAUACUCCCAGAGUAACUG", "target gene": "PRPF3", "seed-corrected z-score": "-0.919"}
{"sequence": "UCACCAACAAGCAUGAUUC", "target gene": "P3H2", "seed-corrected z-score": "0.6886"}
{"sequence": "UCAGGGAUAGCCAAGGGCA", "target gene": "SLC30A3", "seed-corrected z-score": "-0.09477"}
{"sequence": "UUAUGCAUUGGUCUUGGUC", "target gene": "HP", "seed-corrected z-score": "-0.05819"}
{"sequence": "UGAGUGACAGUGAAGUCCC", "target gene": "TMC5", "seed-corrected z-score": "-0.4743"}
{"sequence": "UCCUUUAUGCUAACCCUGC", "target gene": "MOB4", "seed-corrected z-score": "-0.4209"}
{"sequence": "UGUAGAGAAAGAAGUCUUC", "target gene": "GABARAP", "seed-corrected z-score": "0.02352"}
{"sequence": "UUGCGCUUGAAGCCUUUCC", "target gene": "ZNF785", "seed-corrected z-score": "-0.08352"}
{"sequence": "AUAGUCUCAAUCCAAUUUG", "target gene": "NAMPT", "seed-corrected z-score": "-0.1979"}
{"sequence": "UUAAUAGAAGGGUCAGUAC", "target gene": "OR5H2", "seed-corrected z-score": "1.458"}
{"sequence": "AACAUCUUGGGCUUGAUCU", "target gene": "HPN", "seed-corrected z-score": "3.415"}

For reference, 3 entries once more:

* UCAGGGAUAGCCAAGGGCA against SLC30A3 | seed-corrected z-score -0.09477
* UAGGAUCACAUCCCGUAGC against HECTD4 | seed-corrected z-score 0.2159
* UUAUGCACCAGCUCGCUCC against SH3BP5 | seed-corrected z-score -0.2359